Reference: the supplement of paper PMC8426693
This is one part of the list.

Tests used:
Test in all cases: NMR binding call after quantification (hit when 2 of 3 NMR criteria are met) (binary (1 = binding, 0 = not binding)); higher = binding
Details in all cases: RNA concentration 10 µM; fragment concentration 200 µM; 293 K
[1] = tested on: SARS-CoV-2 3'-UTR RNA
[2] = tested on: SARS-CoV-2 3_SL1 RNA
[3] = tested on: SARS-CoV-2 3_SL1+2 RNA
[4] = tested on: SARS-CoV-2 3_SL2 RNA
[5] = tested on: SARS-CoV-2 3_SL3base RNA
[6] = tested on: SARS-CoV-2 3_s2m RNA

SMILES | NMR binding call [1] | NMR binding call [2] | NMR binding call [3] | NMR binding call [4] | NMR binding call [5] | NMR binding call [6]
CCOC(=O)C1CCN(c2cnccn2)CC1 | 0 | 0 | 0 | 0 | 0 | 0
CCc1ccc(OCC(=O)N2CCCCC2)cc1 | 0 | 0 | 0 | 0 | 0 | 0
CC(C)NC(=O)c1cc[nH]n1 | 0 | 0 | 0 | 0 | 0 | 0
CC1CN(S(=O)(=O)N(C)C(C)C)CCO1 (stereo not given) | 0 | 0 | 0 | 0 | 0 | 0
CCC1CCC(NCC2CCCO2)CC1 (stereo not given) | 0 | 0 | 0 | 0 | 0 | 0
CN(c1ccc(C(N)=O)nn1)C1CCC1 | 0 | 0 | 0 | 0 | 0 | 0
COc1cc(CN)cc(OC)c1OC.Cl | 0 | 0 | 0 | 0 | 0 | 0
Cc1cccc(C(=O)NC(C)C2CC2)n1 (stereo not given) | 0 | 0 | 0 | 0 | 0 | 0
CC1(C)CCCN1CCN | 0 | 0 | 0 | 0 | 0 | 0
Cc1nccn1Cc1cccc(C#N)c1 | 0 | 0 | 0 | 0 | 0 | 0
CC(Oc1ccc(-c2ccccc2)cc1)C(=O)O (stereo not given) | 0 | 0 | 0 | 0 | 0 | 0
Cc1ccccc1-n1cc(C(=O)O)nn1 | 0 | 0 | 0 | 0 | 0 | 0
CCc1nc(-c2ccc(Cl)cc2)no1 | 1 | 0 | 0 | 0 | 0 | 0
COCC(=O)Nc1nnc(C)s1 | 0 | 0 | 0 | 0 | 0 | 0
Cn1cc(Cl)c(C(=O)NC2CCCC2)n1 | 0 | 0 | 0 | 0 | 0 | 0

2 records picked at random from those above, as already listed:
SMILES | NMR binding call [1] | NMR binding call [2] | NMR binding call [3] | NMR binding call [4] | NMR binding call [5] | NMR binding call [6]
CC1(C)CCCN1CCN | 0 | 0 | 0 | 0 | 0 | 0
CCC1CCC(NCC2CCCO2)CC1 (stereo not given) | 0 | 0 | 0 | 0 | 0 | 0
